Paper PMC7721647, “The Human RNA Helicase DDX21 Presents a Dimerization Interface Necessary for Helicase Activity” (iScience, 2020)
Changes are numbered by the printed parent chain. For at least one entry, the source does not settle the construct or the ends of the probe. For part of these data: Weaker means in comparison with the reference protein, sequence or condition of that experiment. Where a protein sequence is shown, tags need not be part of it.

What was measured:
Test in all cases: fluorescence polarization
DDX21ΔNC (human) = target: T1, DDX21ΔNC (human) (UniProt Q9NR30); details: 175/300 mM salt, weak binding, Kd cannot be fit; FP: 50 mM Tris pH 7.5, 50 mM KCl, 5 mM MgCl2, no ATP; Hill-slope fit; recombinant protein; residues 186-710; label: 5'-FAM
T1 sequence (looked up): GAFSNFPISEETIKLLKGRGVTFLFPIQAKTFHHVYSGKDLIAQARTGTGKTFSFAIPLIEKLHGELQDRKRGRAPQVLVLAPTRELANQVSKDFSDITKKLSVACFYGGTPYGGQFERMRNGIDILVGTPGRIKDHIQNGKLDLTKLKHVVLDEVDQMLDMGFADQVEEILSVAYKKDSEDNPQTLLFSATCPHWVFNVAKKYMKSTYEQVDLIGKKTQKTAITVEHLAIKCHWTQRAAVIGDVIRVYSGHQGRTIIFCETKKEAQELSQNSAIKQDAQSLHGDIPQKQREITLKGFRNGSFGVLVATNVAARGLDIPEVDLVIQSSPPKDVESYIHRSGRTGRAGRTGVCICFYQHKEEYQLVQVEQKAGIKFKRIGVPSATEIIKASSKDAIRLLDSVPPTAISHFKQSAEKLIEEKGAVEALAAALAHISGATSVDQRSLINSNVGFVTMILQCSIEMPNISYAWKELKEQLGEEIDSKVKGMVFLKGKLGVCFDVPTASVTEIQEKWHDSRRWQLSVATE

[1] = target: T2, DDX21ΔN monomer L611R,A612R,A613R,A614R,L615R,A616R (human) (UniProt Q9NR30); details: 175/300 mM salt; FP: 50 mM Tris pH 7.5, 50 mM KCl, 5 mM MgCl2, no ATP; Hill-slope fit; recombinant protein; residues 186-783; label: 5'-FAM
T2 sequence (looked up): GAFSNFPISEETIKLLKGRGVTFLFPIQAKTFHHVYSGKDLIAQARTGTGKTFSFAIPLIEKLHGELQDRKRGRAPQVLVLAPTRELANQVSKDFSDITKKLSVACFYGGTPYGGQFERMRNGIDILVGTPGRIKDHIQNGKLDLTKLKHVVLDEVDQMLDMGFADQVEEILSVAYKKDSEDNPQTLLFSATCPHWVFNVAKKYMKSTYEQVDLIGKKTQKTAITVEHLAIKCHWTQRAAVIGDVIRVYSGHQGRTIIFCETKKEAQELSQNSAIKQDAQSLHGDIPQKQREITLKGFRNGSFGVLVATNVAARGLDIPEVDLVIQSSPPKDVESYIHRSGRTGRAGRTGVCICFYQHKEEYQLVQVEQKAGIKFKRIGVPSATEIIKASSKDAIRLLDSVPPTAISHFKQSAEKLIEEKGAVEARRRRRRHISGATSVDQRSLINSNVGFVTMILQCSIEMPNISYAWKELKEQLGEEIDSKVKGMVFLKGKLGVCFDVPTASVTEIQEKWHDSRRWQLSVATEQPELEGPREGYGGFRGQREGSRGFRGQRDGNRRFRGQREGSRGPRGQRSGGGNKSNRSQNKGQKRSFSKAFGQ

DDX21ΔN (human) = target: T3, DDX21ΔN (human) (UniProt Q9NR30); details: 175/300 mM salt; FP: 50 mM Tris pH 7.5, 50 mM KCl, 5 mM MgCl2, no ATP; Hill-slope fit; recombinant protein; residues 186-783; label: 5'-FAM
T3 sequence (looked up): T2 sequence (looked up) with R426L, R427A, R428A, R429A, R430L, R431A

DDX21Fl (human) = target: T4, DDX21Fl (human) (UniProt Q9NR30); details: FP: 50 mM Tris pH 7.5, 50 mM KCl, 5 mM MgCl2, no ATP, Hill-slope fit, recombinant protein, residues 1-783, protein details: N-terminal Trx-His6, cut with thrombin, label: 5'-FAM
T4 sequence (looked up): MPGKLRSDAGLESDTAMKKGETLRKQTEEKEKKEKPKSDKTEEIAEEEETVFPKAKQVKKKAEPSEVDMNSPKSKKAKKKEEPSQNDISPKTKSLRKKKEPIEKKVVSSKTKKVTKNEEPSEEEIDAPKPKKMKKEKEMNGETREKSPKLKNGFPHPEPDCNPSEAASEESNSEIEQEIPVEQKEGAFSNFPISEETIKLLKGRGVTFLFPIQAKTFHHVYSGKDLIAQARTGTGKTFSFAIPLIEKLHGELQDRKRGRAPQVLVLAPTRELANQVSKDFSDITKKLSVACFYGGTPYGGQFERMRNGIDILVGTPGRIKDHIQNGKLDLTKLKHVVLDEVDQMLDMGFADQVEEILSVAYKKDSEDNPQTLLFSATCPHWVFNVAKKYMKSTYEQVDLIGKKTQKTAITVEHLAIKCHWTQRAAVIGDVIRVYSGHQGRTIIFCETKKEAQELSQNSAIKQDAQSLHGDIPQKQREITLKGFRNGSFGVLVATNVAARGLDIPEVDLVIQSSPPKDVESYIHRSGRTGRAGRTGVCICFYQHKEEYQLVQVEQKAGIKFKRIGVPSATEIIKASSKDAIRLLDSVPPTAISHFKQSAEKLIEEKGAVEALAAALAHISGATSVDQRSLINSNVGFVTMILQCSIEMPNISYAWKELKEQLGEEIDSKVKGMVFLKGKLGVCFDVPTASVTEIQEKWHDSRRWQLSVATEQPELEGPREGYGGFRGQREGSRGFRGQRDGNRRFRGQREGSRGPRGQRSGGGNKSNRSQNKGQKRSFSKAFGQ

DDX21Core-DD (human) = target: T5, DDX21Core-DD (human) (UniProt Q9NR30); details: 175/300 mM salt, weak binding, Kd cannot be fit; FP: 50 mM Tris pH 7.5, 50 mM KCl, 5 mM MgCl2, no ATP; Hill-slope fit; recombinant protein; residues 186-620; protein details: C-terminal His6, uncleavable; label: 5'-FAM
T5 sequence (looked up): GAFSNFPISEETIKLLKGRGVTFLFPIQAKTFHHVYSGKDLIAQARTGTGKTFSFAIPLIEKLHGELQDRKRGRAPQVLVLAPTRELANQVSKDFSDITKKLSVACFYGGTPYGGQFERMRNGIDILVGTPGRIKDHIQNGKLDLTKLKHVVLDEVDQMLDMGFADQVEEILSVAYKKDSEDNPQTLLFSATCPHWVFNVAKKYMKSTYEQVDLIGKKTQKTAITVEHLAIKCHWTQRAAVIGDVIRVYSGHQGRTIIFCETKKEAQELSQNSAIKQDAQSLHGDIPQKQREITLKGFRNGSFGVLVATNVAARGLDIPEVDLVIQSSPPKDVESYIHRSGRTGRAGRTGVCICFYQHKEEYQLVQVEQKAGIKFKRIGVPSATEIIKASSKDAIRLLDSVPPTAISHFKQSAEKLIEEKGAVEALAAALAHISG

Sequence: GUUGGGGCGGGCGUUGGGUUUGGGGGGACG [Q2 RNA G-quadruplex]
- binding result (DDX21ΔNC (human)): binds more weakly
- Kd [1]: 8.7 nM
- Kd (DDX21ΔN (human)): 20.1 nM
- Kd (DDX21Fl (human); 25 mM KCl, 500 mM NaCl, 2.5 mM MgCl2, 5% glycerol): 1660 nM
- Kd (DDX21Fl (human); 175 mM salt): 35.7 nM
- binding result (DDX21Core-DD (human)): binds more weakly
